Data on two molecules can be found in patent publication US20250289896A1.

Chains of the proteins cited; added tags and fusions are not shown. Lines headed by an entry give the natural chain unless they say otherwise; changes in a name come on top. A line that says so, or that is headed by a name, gives the form on record, which may keep a tag or linker.
cynomolgus macaque CCR8 (G7NYJ2, form named): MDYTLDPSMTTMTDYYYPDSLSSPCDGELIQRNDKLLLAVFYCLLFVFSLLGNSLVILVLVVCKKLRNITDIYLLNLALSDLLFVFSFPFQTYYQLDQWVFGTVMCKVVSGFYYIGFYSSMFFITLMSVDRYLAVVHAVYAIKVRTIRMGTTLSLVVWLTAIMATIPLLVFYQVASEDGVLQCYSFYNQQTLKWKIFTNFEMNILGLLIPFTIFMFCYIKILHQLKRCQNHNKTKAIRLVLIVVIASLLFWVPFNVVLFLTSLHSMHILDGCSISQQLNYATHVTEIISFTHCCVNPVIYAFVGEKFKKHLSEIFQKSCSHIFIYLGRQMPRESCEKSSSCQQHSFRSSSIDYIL

This assay deals with cynomolgus macaque CCR8 (cynomolgus macaque) (UniProt G7NYJ2). Description: flow cytometry, 293T cells overexpressing cynomolgus CCR8.

No constants are given. Whether binding was seen depends on the method and setting. Some entries that bind do so weakly or less than the wild type.

B1: ABC822 (antibody, human IgG1, kappa, V domains shown)
VH: EVQLVESGGGLMQPGRSLKLSCAASGFSFSDYYMAWVRQAPKKGLEWVASISNAGTKTYYGDSVKGRFTISRDDAKSTLYLQMNSLRSEDTATYYCVRQDLYYGRNQYWYFDFWGPGTMVTVSS
VL: IVMTQSPTSMSKSVGDRVTMNCKASQSVGSNVDWYQQKTGQSPKLLIYKTSSRFTGVPDRFTGSGSRTDFTFTISSMQAEDLALYYCVQSNSYPYTFGAGTKLELKR
B1: the binding result was “binds”.

B2: ABC1183 (antibody, human IgG1, kappa, V domains shown)
VH: EVQLLESGGGLVQPGGSLRLSCAASGFSFSDYYMAWVRQAPGKGLEWVASISNAGTKTYYGDSVKGRFTISRDDSKNTLYLQMNSLRAEDTAVYYCVRQDLYYGRNQYWYFDFWGRGTLVTVSS
VL: DIQMTQSPSSLSASVGDRVTITCKASQSVGSNVDWYQQKPGKSPKLLIYKTSSRFTGVPSRFSGSGSRTDFTLTISSLQPEDFATYYCVQSNSYPYTFGAGTKLELKR
Take B2: the binding result was “binds”.
